According to patent EP0480381A1:

Target: rat endothelin receptor (rat)
Test: binding to COS-7 cells transfected with the isolated cDNA clone

CTCFTYKDKECVYYCHLDIIW (peptide, UniProt P14138 97-117, looked up) [endothelin-3] was tested, and the binding was “binds”.

These are yes or no findings as the source states them, for the method shown. A result given as binding can be weak or reduced; the word gives no strength.
